# Results taken from PubChem BioAssay AID504834 (National Center for Advancing Translational Sciences (NCATS), 2011).
# The whole screen tested about 320,000 compounds, of which about 22,000 (6.9%) were called active. Inconclusive means that the source gave no clear call. Such entries were picked first, then a sample of the others. The call rests on the fitted dose curve; in most records, active means well fitted inhibition curve with a large enough effect; inconclusive means small, poorly fitted or top-dose-only effect, or another doubt; inactive means no such curve, though single readings can be large or run the other way. Potencies of inconclusive entries are doubtful fits and often do not repeat.
# Assay: Primary qHTS for delayed death inhibitors of the malarial parasite plastid, 96 hour incubation
# Details: P. falciparum luciferase reporter growth; series mostly up to 28.7 µM; activity change, negative = inhibition: at the top concentration
# Method in brief: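 Delayed-death screen, second-generation endpoint: infected erythrocytes, 2% hematocrit, 0.05% parasitemia final; 96 hours at 37 C, 5% CO2; luciferase detection reagent; luminescence decrease equals reduced growth.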
# On the % scale 0 is the no-effect control and ±100 the full control effect; potency means the concentration at half of the fitted maximal effect.
Structure (SMILES),Potency,"activity change, negative = inhibition"
O=C(Nc1c2c(nn1-c1ccc(F)cc1)CS(=O)C2)c1ccc(Br)o1 (stereo unspecified),"inconclusive: 4.15 µM [inhibitor, partial curve, poor fit]",
Nc1nc(NCCN2CCOCC2)nc(NCc2ccccc2)c1[N+](=O)[O-],active: 8.28 µM,
COc1cc(/C=C2/NC(=O)N(c3cccc(Cl)c3)C2=O)ccc1O,"inconclusive: 3.29 µM [inhibitor, full curve]",
COC(C(=O)N/N=C(\C)c1ccc(O)cc1)c1ccccc1 (stereo unspecified),"inconclusive: 18.5 µM [inhibitor, single point]",
COc1ccc(-n2c(NNC(C)=O)nc3sc4c(c3c2=O)CCCC4)cc1,"inconclusive: 18.5 µM [inhibitor, single point]",
CCOc1ccccc1NC(=O)c1ccc(NC(=O)c2ccco2)cc1,,inactive: -22.2%
Cc1ccc(/C=N/NC(=O)CSc2nc3ccccc3c(=O)n2-c2ccccc2C)s1,active: 11.7 µM,
CC(=O)c1c(C)nc2nonc2c1N,"inconclusive: 4.15 µM [inhibitor, partial curve, poor fit]",
N=c1ccn(Cc2ccc([N+](=O)[O-])cc2)cc1,"inconclusive: 18.5 µM [inhibitor, partial curve, poor fit]",
O=C(CCS(=O)(=O)Cc1ccccc1)N1CCN(c2ccc([N+](=O)[O-])cc2)CC1,"inconclusive: 20.8 µM [inhibitor, single point]",
CCCCn1c(N)c(N(CC(C)C)C(=O)CCCc2nc3ccccc3c(=O)[nH]2)c(=O)[nH]c1=O,,inactive: 1.48%
CCN(CC)C(=O)CS(=O)(=O)CC(=O)Nc1cc(OCCOC)c(Cl)cc1Cl,"inconclusive: 1.47 µM [inhibitor, full curve]",
CCCCn1nc(C(=O)N2CCN(S(=O)(=O)c3ccccc3)CC2)c2ccccc2c1=O,"inconclusive: 6.57 µM [inhibitor, partial curve]",
O=c1[nH]c(CN2CC=C(c3ccccc3)CC2)nc2scc(-c3ccccc3)c12,"inconclusive: 11.7 µM [inhibitor, partial curve]",
CCOC(=O)c1c(N2C(=O)Nc3ccccc3N2O)sc2c1CCCC2,"inconclusive: 1.17 µM [inhibitor, partial curve, poor fit]",
Cc1ccc(NC(=O)Nc2nnc(-c3ccncc3)s2)cc1,active: 9.28 µM,
COc1ccc(NC(=O)CN2CCN(S(=O)(=O)N3CCCCCC3)CC2)cc1,,inactive: 56.7%
COc1ccc(N2CCN(C(=O)CCNS(=O)(=O)c3ccc(C)cc3)CC2)cc1,"inconclusive: 18.5 µM [inhibitor, single point]",
CN(c1ccccc1)S(=O)(=O)c1ccc(Cl)c(C(=O)NC2=NCCS2)c1,"inconclusive: 18.5 µM [inhibitor, single point]",
CCNc1ccc(C(=O)OCC)cc1NC(=O)c1cc(S(=O)(=O)N2CCOCC2)ccc1C,"inconclusive: 18.5 µM [inhibitor, single point]",
O=S(=O)(c1ccccc1)N1CCCCC1c1cccnc1 (stereo unspecified),"inconclusive: 11.7 µM [inhibitor, single point]",
CC(Sc1nnc(-c2ccccc2Br)o1)C(=O)N1CCOCC1 (stereo unspecified),,inactive: -24.6%
CCOC(=O)c1ccc(NC(=O)CN2C(=O)C(=O)N(CC(C)C)C2=O)cc1,,inactive: 14.4%
CC1CCCC(C)N1CC(O)COc1ccc(Cl)cc1 (stereo unspecified),"inconclusive: 18.5 µM [inhibitor, single point]",

# Reformatted with tabs: entries from further up
Structure (SMILES)	Potency	activity change, negative = inhibition
COC(C(=O)N/N=C(\C)c1ccc(O)cc1)c1ccccc1 (stereo unspecified)	inconclusive: 18.5 µM [inhibitor, single point]	
Cc1ccc(/C=N/NC(=O)CSc2nc3ccccc3c(=O)n2-c2ccccc2C)s1	active: 11.7 µM	

# Following part.

Structure (SMILES),Potency,"activity change, negative = inhibition"
CCN(CC(=O)Nc1ccccc1OC)C(=O)CC1CC2CCC1C2 (stereo unspecified),,inactive: -22%
O=C(NCC(=O)N1CCN(c2ccccc2F)CC1)c1ccco1,,inactive: 12.6%
CCOc1ccc(CN2CCN(Cc3nc(C(C)C)cs3)CC2CCO)cc1 (stereo unspecified),"inconclusive: 18.5 µM [inhibitor, single point]",
COc1cc2cc(C(=O)NCCc3ccccc3)[nH]c2cc1OC,"inconclusive: 0.928 µM [inhibitor, partial curve]",
FC(F)(F)c1cc(Oc2ccccc2Cl)nc(-c2ccccn2)n1,,inactive: 41.7%
COc1cc(N/C(N)=N/c2nc(C)cc(C)n2)c(OC)cc1Cl,,inactive: -8.41%
CCOC(=O)c1ccccc1NC(=O)c1c(F)c(F)c(F)c(F)c1F,,inactive: 9.59%
Cc1ccc2c(CN3CC(C)CC(C)C3)cc(=O)oc2c1C (stereo unspecified),active: 14.7 µM,
COc1cccc(/C=N/NC(=O)c2oc3nc(-c4ccccc4)cc(-c4ccco4)c3c2N)c1,"inconclusive: 7.38 µM [inhibitor, partial curve]",
O=C(NCCc1ccccc1)C1CCN(S(=O)(=O)c2ccc(Br)s2)CC1,"inconclusive: 13.1 µM [inhibitor, single point]",
O=C1c2ccccc2C(=O)N1CCCCN(C(=O)c1cc([N+](=O)[O-])cc([N+](=O)[O-])c1)c1ccc(Cl)cc1,"inconclusive: 18.5 µM [inhibitor, single point]",
Cc1ccc(NC(=O)CSc2ccccc2)cc1S(=O)(=O)N1CCOCC1,"inconclusive: 18.5 µM [inhibitor, single point]",
COc1ccc2c(ccn2S(=O)(=O)c2ccccc2)c1,,inactive: 2.69%
Cc1ccc(NC(=O)CSCC(=O)NNC(=O)c2ccoc2C)cc1,,inactive: 33.1%
COc1ccc(CNC(=O)CC2Sc3ccccc3NC2=O)cc1 (stereo unspecified),,inactive: 26.2%
Cn1c(SCC(=O)N2CCCC2)nnc1-c1cccs1,"inconclusive: 6.57 µM [inhibitor, partial curve, poor fit]",
CCC1CSC(Nc2ccc(C(=O)/C=C/c3ccc(Oc4ccccc4)cc3)cc2)=N1 (stereo unspecified),active: 6.57 µM,
Cc1nn(C(C)(C)C)c(NC(=O)c2ccccc2)c1C#N,"inconclusive: 11.7 µM [inhibitor, partial curve, poor fit]",
N#C/C(=C/c1ccc(-c2ccc(S(N)(=O)=O)cc2)o1)C(=O)Nc1ccccc1,"inconclusive: 16.5 µM [inhibitor, single point]",
CC(C)C(NS(=O)(=O)c1ccccc1)C(=O)N1CCN(C(=O)c2ccco2)CC1 (stereo unspecified),,inactive: -2.6%
CNC(=O)CC1C(=O)N(c2ccc(F)cc2)C(=S)N1NC(=O)c1ccc(Cl)cc1 (stereo unspecified),"inconclusive: 11.7 µM [inhibitor, single point]",
O=C(Nc1ccccc1Cl)C1CCCN(S(=O)(=O)c2cccc3cccnc23)C1 (stereo unspecified),,inactive: 28.1%
CC1CCCCN1C(=O)COC(=O)c1cc(-c2cccs2)nn1-c1ccccc1 (stereo unspecified),"inconclusive: 0.0029 µM [inhibitor, full curve, poor fit]",
CCN(CC)c1ccc(C=Nc2ccc(OC)c(S(=O)(=O)N3CCOCC3)c2)c(O)c1,,inactive: -24.7%

Structure (SMILES),Potency,"activity change, negative = inhibition"
COc1ccccc1NC(=O)c1cc2cc(Br)ccc2cc1O,"inconclusive: 1.47 µM [inhibitor, full curve]",
O=C1c2ccccc2C(Nc2cccnc2)N1Cc1ccc2c(c1)OCO2 (stereo unspecified),active: 1.47 µM,
Cc1nc2nc(SCc3ccccc3)nn2c(C)c1C,,inactive: 41.7%
Cc1nc(N2CCN(S(=O)(=O)c3ccccc3)CC2)c2c3c(sc2n1)CC(C)CC3 (stereo unspecified),active: 10.4 µM,
CNC(=O)/C(=C\c1ccc([N+](=O)[O-])cc1)NC(C)=O,"inconclusive: 0.415 µM [inhibitor, partial curve, poor fit]",
Cc1[nH]c2ccccc2c1N=Nc1cccc(C(=O)O)c1,,inactive: 35.6%
Cn1c(SCC(=O)N2c3ccccc3Sc3ccccc32)nc2ccccc21,"inconclusive: 3.7 µM [inhibitor, single point]",
Cc1cc(C)cc(OCC(=O)Nc2cccc(S(=O)(=O)NC3=NCCC3)c2)c1,"inconclusive: 10.4 µM [inhibitor, partial curve, poor fit]",
CC12CNCC(C)(CN(C(c3ccccc3)c3ccccc3)C1)C2,"inconclusive: 11.7 µM [inhibitor, partial curve, poor fit]",
CC1CN(C(=O)CCC(=O)NCCCN2C(C)CCCC2C)c2ccccc2O1 (stereo unspecified),,inactive: 42.3%
COc1cc(/C=N/n2c(-c3n[nH]c4c3CCC4)n[nH]c2=S)cc(OC)c1O,,inactive: 20.6%
O=C(NCc1cccnc1)Nc1cccc(Cl)c1Cl,"inconclusive: 18.5 µM [inhibitor, single point]",
Cc1cc(NS(=O)(=O)c2ccc(NC(=O)CSc3nc4ncc(Br)cc4[nH]3)cc2)nc(C)n1,"inconclusive: 9.28 µM [inhibitor, partial curve]",
COc1ccc(OC)c(-c2csc(NC(=O)CSc3ccc(Br)cc3)n2)c1,"inconclusive: 8.28 µM [inhibitor, partial curve, poor fit]",
S=C(NC1CCCCC1)N1CCc2[nH]c3ccccc3c2C1,"inconclusive: 11.7 µM [inhibitor, single point]",
CCOC(=O)C1CCC(CN(Cc2ccccc2C)S(=O)(=O)c2ccc([N+](=O)[O-])cc2)CC1 (stereo unspecified),"inconclusive: 2.62 µM [inhibitor, full curve, poor fit]",
CC(C)C[C@H](NC(=O)c1[nH]cnc1C(=O)N[C@H](C)c1ccccc1)C(=O)OC(C)(C)C,"inconclusive: 11.7 µM [inhibitor, single point]",
O=C(Cn1c(=O)c2sccc2n(Cc2ccc([N+](=O)[O-])cc2)c1=O)NCCc1ccccc1,"inconclusive: 2.94 µM [inhibitor, single point]",
CC(NCc1cccs1)c1ccccc1 (stereo unspecified),active: 11.7 µM,
NC(=O)C1CCCN(S(=O)(=O)c2ccc3ccccc3c2)C1 (stereo unspecified),,inactive: -4.79%
O=C1N=c2ccccc2=C1c1sc(Nc2cccc(O)c2)nc1O,"inconclusive: 14.7 µM [inhibitor, partial curve, poor fit]",
O=C(COC(=O)CC1CCCC1)Nc1ccc(Cl)cc1,,inactive: 0.688%
COc1cccc(CNC(=O)C2CCN(S(=O)(=O)c3ccc4c(c3)CC(C)N4C(C)=O)CC2)c1 (stereo unspecified),"inconclusive: 7.38 µM [inhibitor, partial curve]",
